Results are given in words; binding and its absence hold for the method and conditions named. Binding seen in cells or lysates may run through a third protein. Some binding calls cover weakened binding; strength is not graded here.
Tests used:
[1] = biological target: T1, KH-type splicing regulatory protein (human (endogenous in HL7702)) (UniProt Q92945); assay: co-IP; protein extracts from HL7702 cells immunoprecipitated with antibodies for KHSRP or SF3B1 and immunoblotted for the indicated proteins
T1 sequence: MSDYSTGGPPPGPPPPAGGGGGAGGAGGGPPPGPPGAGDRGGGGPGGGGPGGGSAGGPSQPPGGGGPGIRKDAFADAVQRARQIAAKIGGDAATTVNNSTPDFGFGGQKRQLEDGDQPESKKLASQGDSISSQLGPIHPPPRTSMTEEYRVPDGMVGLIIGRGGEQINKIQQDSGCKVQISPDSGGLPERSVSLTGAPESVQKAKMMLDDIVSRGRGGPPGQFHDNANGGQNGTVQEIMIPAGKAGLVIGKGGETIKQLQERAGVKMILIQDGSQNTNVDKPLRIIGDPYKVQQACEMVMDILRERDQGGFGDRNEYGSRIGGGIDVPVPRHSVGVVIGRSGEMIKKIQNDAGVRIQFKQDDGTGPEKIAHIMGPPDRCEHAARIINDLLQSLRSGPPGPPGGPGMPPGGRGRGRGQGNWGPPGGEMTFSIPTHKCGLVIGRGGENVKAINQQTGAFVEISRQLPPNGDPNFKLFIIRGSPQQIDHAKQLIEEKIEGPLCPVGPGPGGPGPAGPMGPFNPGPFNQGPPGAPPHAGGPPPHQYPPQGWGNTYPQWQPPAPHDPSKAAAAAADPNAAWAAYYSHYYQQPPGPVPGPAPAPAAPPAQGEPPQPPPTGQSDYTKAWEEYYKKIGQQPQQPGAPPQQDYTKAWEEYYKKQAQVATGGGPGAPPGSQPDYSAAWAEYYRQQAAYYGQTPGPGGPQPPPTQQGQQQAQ

Amino acid sequences for entries named in this document (tags omitted). A change or cut given only in a name is not applied to a line headed by its entry.
UniProt Q15393: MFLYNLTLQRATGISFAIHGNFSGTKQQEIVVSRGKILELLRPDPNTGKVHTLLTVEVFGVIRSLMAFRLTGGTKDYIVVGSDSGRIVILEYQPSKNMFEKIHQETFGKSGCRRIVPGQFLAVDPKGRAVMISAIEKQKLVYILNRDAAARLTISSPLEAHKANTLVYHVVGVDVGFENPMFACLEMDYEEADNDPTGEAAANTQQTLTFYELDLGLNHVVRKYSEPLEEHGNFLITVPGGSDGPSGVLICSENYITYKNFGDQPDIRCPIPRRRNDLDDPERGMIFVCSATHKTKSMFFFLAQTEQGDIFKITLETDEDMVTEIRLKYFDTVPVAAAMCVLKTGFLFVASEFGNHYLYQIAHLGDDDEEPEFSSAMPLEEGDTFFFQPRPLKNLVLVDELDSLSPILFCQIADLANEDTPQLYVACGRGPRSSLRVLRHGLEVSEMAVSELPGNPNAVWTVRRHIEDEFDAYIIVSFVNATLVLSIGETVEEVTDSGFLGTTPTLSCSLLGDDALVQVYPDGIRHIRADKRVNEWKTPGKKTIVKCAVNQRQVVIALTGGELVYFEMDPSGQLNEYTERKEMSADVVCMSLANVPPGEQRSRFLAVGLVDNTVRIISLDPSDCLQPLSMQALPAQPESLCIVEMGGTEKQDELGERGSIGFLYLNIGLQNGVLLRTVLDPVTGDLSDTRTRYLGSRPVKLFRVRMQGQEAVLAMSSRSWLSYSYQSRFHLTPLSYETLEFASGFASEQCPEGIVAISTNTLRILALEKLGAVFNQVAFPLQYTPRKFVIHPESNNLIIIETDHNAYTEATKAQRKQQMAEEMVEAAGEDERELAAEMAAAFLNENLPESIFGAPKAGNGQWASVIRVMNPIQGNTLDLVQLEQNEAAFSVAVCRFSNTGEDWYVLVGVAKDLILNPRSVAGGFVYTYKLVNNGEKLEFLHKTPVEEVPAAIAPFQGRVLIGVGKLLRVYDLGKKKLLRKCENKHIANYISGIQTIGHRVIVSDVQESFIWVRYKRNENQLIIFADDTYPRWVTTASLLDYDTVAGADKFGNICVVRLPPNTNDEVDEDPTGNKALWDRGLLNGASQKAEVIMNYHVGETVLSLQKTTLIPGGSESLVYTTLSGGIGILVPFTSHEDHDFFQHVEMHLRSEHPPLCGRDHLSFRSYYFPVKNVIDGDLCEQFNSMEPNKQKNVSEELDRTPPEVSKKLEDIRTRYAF
UniProt O75533: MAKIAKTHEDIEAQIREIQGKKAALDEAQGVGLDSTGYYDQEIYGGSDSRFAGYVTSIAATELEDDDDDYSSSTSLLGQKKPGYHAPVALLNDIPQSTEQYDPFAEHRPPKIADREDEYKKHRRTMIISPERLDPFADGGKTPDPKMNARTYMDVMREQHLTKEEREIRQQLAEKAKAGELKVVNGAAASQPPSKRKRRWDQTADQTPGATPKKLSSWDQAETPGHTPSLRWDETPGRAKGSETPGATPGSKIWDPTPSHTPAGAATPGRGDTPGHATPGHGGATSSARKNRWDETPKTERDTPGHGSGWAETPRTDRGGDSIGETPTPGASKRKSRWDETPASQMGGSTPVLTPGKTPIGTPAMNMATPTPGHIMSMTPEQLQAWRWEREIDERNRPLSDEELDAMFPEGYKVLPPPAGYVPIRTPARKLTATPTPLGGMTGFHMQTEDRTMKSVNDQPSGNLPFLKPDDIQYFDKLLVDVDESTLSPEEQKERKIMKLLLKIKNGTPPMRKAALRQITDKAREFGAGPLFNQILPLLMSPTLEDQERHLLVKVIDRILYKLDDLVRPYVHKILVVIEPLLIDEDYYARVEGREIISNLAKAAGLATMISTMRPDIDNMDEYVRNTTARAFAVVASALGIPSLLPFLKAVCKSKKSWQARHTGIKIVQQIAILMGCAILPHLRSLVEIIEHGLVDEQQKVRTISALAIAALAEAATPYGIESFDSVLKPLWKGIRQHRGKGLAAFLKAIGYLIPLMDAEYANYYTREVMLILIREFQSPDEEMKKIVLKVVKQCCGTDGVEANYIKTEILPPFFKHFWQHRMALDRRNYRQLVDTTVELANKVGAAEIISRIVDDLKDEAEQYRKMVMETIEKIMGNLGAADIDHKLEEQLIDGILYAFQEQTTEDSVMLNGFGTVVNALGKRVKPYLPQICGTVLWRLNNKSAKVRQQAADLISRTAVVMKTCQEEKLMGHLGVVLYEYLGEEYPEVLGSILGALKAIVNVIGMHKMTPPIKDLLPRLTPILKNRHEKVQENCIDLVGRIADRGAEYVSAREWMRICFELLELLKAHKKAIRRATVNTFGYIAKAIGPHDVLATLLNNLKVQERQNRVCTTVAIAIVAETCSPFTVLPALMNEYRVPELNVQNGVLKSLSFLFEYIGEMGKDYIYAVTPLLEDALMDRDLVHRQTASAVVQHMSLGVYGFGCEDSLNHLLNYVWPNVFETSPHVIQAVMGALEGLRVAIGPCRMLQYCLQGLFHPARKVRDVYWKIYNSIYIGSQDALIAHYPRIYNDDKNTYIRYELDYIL

[2] = biological target: T1, KH-type splicing regulatory protein (human (endogenous in HL7702)); assay: co-IP; HL7702 cells that overexpressed different HA-tagged SF3B1 truncations; KHSRP detected

Substance	binding [1]	binding [2]
SF3B3 (from UniProt Q15393 1-1217)	binds	–
HA-SF3B1 amino acids 955–1304 (HEAT 11–22 domain) (from UniProt O75533 955-1304) (domain or fragment)	–	binds
splicing factor 3b subunit 1 (from UniProt O75533 1-1304)	binds	–

From paper PMC11347664, “KHSRP ameliorates acute liver failure by regulating pre-mRNA splicing through its interaction with SF3B1” (Cell Death & Disease, 2024)
